# Data as given in publication doi:10.1101/2021.12.17.472994.
# Chains of the proteins cited; added tags and fusions are not shown. Lines headed by an entry give the natural chain unless they say otherwise; changes in a name come on top.
# UniProt O95365: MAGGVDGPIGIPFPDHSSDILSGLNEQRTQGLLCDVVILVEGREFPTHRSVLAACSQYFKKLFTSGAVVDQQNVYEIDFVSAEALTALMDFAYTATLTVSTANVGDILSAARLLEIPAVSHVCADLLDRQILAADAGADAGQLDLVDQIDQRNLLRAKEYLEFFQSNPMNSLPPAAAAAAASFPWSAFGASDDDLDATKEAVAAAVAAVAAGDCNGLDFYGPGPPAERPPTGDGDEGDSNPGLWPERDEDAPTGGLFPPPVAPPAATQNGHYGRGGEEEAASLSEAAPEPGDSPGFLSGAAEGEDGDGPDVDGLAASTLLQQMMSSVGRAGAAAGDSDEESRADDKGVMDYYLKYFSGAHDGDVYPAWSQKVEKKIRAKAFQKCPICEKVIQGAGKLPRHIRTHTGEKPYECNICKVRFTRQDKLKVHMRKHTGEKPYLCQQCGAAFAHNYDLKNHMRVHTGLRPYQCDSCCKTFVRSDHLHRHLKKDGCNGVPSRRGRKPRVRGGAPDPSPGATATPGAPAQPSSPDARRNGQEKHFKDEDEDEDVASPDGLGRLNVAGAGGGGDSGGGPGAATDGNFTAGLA
# UniProt Q5NBY9: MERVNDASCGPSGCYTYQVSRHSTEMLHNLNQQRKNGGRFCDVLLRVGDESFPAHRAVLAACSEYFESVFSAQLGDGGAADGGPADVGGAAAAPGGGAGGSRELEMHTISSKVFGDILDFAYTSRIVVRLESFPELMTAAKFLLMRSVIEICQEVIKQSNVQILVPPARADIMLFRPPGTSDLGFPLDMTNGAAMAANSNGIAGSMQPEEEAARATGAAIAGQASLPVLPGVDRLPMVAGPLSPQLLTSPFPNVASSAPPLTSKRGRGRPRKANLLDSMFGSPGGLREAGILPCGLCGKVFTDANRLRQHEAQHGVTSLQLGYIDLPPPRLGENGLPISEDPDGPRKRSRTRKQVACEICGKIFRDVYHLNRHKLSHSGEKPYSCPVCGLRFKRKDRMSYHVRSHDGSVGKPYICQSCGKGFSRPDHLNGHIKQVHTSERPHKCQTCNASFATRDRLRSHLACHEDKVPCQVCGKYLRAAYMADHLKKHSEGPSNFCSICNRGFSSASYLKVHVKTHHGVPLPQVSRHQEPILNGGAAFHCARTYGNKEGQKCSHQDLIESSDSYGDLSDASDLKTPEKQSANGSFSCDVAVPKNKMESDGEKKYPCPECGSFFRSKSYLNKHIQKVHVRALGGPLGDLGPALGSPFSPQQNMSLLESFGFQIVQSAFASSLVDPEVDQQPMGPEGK
# UniProt Q13105: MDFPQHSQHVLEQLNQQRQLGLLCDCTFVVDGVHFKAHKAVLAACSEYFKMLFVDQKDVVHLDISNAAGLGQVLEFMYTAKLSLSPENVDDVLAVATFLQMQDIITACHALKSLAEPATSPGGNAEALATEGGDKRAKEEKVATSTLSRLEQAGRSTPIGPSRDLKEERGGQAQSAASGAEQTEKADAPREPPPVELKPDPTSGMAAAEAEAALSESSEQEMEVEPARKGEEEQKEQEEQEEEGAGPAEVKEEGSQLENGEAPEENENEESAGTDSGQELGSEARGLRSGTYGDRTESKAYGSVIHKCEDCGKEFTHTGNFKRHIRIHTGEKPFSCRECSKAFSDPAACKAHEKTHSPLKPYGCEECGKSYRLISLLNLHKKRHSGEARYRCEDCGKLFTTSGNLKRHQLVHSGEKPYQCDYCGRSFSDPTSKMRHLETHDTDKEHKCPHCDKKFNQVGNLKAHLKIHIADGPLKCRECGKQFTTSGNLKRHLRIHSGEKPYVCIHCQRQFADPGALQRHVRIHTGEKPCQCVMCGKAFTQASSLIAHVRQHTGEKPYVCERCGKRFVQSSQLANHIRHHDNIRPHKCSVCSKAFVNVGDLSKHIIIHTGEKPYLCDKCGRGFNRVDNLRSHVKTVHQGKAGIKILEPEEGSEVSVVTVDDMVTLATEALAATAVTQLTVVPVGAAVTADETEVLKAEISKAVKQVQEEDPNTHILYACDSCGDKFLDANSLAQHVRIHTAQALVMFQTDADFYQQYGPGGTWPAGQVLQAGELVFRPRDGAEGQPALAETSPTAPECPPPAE
# UniProt Q05516: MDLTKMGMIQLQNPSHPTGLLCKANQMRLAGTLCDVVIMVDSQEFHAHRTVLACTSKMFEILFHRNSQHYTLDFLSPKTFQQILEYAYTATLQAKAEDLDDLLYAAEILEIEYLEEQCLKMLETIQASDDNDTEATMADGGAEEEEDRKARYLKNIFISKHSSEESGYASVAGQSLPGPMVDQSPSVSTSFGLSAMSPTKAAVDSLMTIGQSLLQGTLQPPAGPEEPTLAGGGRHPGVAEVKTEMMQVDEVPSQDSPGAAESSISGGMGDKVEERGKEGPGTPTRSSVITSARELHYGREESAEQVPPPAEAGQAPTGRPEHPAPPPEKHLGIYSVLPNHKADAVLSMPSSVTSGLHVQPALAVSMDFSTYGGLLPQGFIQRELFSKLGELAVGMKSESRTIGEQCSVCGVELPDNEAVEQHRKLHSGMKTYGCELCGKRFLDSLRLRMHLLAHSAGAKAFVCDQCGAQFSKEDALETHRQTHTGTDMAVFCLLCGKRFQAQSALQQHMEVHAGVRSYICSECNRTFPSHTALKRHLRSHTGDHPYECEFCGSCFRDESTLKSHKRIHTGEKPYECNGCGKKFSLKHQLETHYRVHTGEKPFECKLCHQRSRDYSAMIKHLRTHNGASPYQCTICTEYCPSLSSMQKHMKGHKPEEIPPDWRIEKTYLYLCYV
# UniProt Q86T24: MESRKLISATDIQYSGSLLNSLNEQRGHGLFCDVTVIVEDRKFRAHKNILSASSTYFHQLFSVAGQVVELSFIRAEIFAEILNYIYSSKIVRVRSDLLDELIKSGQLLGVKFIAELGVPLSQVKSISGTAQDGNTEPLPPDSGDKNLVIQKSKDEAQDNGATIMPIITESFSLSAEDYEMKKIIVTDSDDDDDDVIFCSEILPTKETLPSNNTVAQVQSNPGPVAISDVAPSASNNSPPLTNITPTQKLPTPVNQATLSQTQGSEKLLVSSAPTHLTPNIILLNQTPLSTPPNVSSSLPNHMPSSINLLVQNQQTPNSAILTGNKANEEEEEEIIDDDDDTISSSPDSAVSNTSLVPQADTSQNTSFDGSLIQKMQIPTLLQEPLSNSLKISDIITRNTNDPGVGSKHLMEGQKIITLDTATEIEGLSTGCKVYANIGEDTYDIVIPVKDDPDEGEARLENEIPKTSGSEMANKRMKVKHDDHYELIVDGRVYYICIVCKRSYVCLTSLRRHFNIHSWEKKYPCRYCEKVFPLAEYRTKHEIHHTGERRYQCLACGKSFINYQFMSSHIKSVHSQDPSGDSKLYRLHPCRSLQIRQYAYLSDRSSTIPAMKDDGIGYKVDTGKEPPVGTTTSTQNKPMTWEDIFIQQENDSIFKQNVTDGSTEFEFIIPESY
# B1: PATZ2 BTB domain (domain or fragment, UniProt O43167 10-133)
# chain: GQLVVHSDAHSDTVLASFEDQRKKGFLCDITLIVENVHFRAHKALLAASSEYFSMMFAEEGEIGQSIYMLEGMVADTFGILLEFIYTGYLHASEKSTEQILATAQFLKVYDLVKAYTDFQNNHS
# Legend:
# Assay in all cases: two-hybrid
# [1] = target: LRF BTB domain (human) (UniProt O95365)
# [2] = target: PATZ1 BTB domain (murine Patz1) (mouse) (UniProt Q5NBY9)
# [3] = target: T1, PATZ2 BTB domain (human) (UniProt O43167)
# T1 sequence: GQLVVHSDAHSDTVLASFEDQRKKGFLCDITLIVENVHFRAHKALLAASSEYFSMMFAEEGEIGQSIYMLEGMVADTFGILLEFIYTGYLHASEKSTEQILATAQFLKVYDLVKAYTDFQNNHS
# [4] = target: MIZ1 BTB domain (human) (UniProt Q13105)
# [5] = target: PLZF BTB domain (human) (UniProt Q05516)
# [6] = target: KAISO BTB domain (human) (UniProt Q86T24)
# [7] = target: ThPOK BTB domain (human)
Molecule,binding [1],binding [2],binding [3],binding [4],binding [5],binding [6],binding [7]
KAISO BTB domain (from UniProt Q86T24) (domain or fragment),no binding,no binding,no binding,no binding,no binding,–,–
LRF BTB domain (from UniProt O95365) (domain or fragment),–,no binding,no binding,no binding,no binding,no binding,–
MIZ1 BTB domain (from UniProt Q13105) (domain or fragment),no binding,no binding,no binding,–,no binding,no binding,–
PATZ1 BTB domain (murine Patz1) (from UniProt Q5NBY9) (domain or fragment),no binding,–,binds,no binding,no binding,no binding,–
PLZF BTB domain (from UniProt Q05516) (domain or fragment),no binding,no binding,no binding,no binding,–,no binding,–
ThPOK BTB domain (human) (domain or fragment),–,–,no binding,–,–,–,–
B1,no binding,binds,–,no binding,no binding,no binding,no binding

# These are yes or no findings as the source states them, for the method shown. For some assays here: A result given as binding can be weak or reduced; the word gives no strength.
